Consider one compound from patent publication US4001223A, “Adamantane-piperazine derivatives” (Idemitsu Kosan Co., Ltd., priority 1975, dated 1977).

The test system of test [1] is Small intestine excised from guinea-pigs. Description: Inhibition of BaCl2-induced contraction of isolated smooth muscle (small intestine excised from guinea-pigs). Conditions: contracting substance BaCl2 2.00×10^-3 g/ml; effective concentration 1×10^-5 g/ml.
Test [2] shares this test system. Description: Inhibition of acetylcholine-induced contraction of isolated smooth muscle (small intestine excised from guinea-pigs). Particulars: contracting substance Acethylcholine 5.43×10^-4 g/ml; effective concentration 2.30×10^-6 g/ml.
Test [3] concerns Vessels excised from guinea-pigs. Description: Inhibition of adrenalin-induced contraction of isolated smooth muscle (vessels excised from guinea-pigs). Conditions: contracting substance Adrenalin 2.86×10^-6 g/ml; effective concentration 1×10^-5 g/ml.
Test [4] relates to Small intestine excised from guinea-pigs. Description: Inhibition of histamine-induced contraction of isolated smooth muscle (small intestine excised from guinea-pigs). Particulars: contracting substance Histamine 1.00×10^-7 g/ml; effective concentration 1×10^-5 g/ml.

SMILES strings stand for the structures.

Regarding `C(=C\c1ccccc1)/CN1CCN(C(c2ccccc2)c2ccccc2)CC1` [Cinnarizine, reference compound], the Inhibitory rate in test [1] came out at 25.2%; in test [2], 28.15%; in test [3], 32.50%; in test [4] it was 91.9%.
